Data from patent publication US20250242041A1 (Seagen, published 2025).
No constants are given. Whether binding was seen depends on the method and setting. Some binding calls cover weakened binding; strength is not graded here.

T1: cyno αvβ6 on 293F:cynoβ6 cells (human;Macaca fascicularis, UniProt P06756 31-1048; A0A2K5TZ36 22-787)
T1 chain 1: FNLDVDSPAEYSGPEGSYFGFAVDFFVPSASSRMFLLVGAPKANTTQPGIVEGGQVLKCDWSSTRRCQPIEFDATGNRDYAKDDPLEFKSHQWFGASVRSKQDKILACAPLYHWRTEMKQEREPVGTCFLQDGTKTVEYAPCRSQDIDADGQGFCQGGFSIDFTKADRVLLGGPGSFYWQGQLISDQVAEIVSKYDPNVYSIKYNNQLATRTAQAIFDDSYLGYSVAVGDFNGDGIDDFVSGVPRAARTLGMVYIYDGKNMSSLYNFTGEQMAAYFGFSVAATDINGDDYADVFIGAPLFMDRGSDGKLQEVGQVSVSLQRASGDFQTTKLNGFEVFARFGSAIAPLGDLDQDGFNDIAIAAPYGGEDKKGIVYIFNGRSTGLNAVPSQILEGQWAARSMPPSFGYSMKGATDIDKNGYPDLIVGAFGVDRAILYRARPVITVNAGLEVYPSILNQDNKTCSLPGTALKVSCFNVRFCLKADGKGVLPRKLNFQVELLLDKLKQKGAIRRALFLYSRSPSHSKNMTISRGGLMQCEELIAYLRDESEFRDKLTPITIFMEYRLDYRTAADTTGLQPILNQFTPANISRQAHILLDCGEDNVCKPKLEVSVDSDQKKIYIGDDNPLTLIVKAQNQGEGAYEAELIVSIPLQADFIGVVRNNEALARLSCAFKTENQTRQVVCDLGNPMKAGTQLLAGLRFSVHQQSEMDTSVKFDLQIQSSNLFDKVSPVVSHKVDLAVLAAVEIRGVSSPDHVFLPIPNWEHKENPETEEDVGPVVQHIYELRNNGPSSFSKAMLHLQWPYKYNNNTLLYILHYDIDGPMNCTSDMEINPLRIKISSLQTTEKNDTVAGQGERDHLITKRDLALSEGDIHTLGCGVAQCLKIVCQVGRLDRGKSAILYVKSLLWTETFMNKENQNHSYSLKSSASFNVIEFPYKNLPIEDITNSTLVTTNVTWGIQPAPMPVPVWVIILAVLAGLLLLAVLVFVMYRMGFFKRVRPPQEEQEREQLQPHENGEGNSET
T1 chain 2: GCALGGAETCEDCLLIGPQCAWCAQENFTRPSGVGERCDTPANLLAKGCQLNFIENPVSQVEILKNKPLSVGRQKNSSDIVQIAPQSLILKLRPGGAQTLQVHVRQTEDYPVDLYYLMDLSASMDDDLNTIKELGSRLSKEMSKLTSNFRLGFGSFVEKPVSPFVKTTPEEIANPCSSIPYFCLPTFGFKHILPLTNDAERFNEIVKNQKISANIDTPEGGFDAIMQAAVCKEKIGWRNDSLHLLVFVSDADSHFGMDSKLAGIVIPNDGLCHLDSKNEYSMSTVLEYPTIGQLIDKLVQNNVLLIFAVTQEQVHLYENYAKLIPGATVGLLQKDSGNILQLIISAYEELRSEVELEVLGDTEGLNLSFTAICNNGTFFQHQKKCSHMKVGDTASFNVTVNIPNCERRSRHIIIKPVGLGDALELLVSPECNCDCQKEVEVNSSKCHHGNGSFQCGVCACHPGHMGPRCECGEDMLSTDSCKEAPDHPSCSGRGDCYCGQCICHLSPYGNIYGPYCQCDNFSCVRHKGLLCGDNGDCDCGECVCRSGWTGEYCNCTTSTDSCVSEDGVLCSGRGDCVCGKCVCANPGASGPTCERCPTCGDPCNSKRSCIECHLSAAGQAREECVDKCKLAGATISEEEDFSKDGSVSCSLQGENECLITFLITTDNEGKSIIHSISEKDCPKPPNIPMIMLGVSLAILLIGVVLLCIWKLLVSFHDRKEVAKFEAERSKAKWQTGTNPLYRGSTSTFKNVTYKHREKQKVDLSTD


Experiments:
[1] = target: T1, cyno αvβ6 on 293F:cynoβ6 cells; test: binding of the hybridoma panel to transfected 293F cells
[2] = target: T1, cyno αvβ6 on 293F:cynoβ6 cells; test: saturation binding by flow cytometry on 293F:cynoβ6 cells
[3] = target: T1, cyno αvβ6 on 293F:cynoβ6 cells; test: saturation binding by flow cytometry on 293F:cynoβ6 cells; also confirmed by competition binding

Row | binding [1] | binding [2] | binding [3] | Binder
1 | binds | binds | – | murine monoclonal antibody 2A2 (antibody, V domains shown, Mouse hybridoma IgG; also called m2A2; mouse 2A2) VH: EFQLQQSGPELVKPGASVKISCKASGYSFTDYNVNWVKQSNGKSLEWIGVINPKYGTTRYNQKFKGKATLTVDKPSSTAYMQLNSLTSEDSAVYYCTRGLNAWDYWGQGASVTVSS VL: DIQMTQSPASLSASVGETVTITCGASENIYGALNWYQRKQGKSPQLLIYGATNLADGMSSRFSGSGSGRQYSFKISSLHPDDVATYYCQNVLTTPYTFGGGTKLEIK
2 | – | – | binds | h2A2 HCLG humanized antibody (antibody, human IgG1, kappa, V domains shown, Labelled with AlexaFluor-647 in the saturation assay; also called humanized 2A2 HCLG) VH: QFQLVQSGAEVKKPGASVKVSCKASGYSFTDYNVNWVRQAPGQGLEWIGVINPKYGTTRYNQKFKGRATLTVDKSTSTAYMELSSLRSEDTAVYYCTRGLNAWDYWGQGTLVTVSS VL: DIQMTQSPSSLSASVGDRVTITCGASENIYGALNWYQQKPGKAPKLLIYGATNLEDGVPSRFSGSGSGRDYTFTISSLQPEDIATYYCQNVLTTPYTFGQGTKLEIKR
